Measurements: PMC7819943, “Rice protein-binding microarrays: a tool to detect cis-acting elements near promoter regions in rice”
This is one part of the list.

Target: T1, OsSMF1 (Oryza sativa, UniProt Q6ZLB0 1-436)
T1 sequence: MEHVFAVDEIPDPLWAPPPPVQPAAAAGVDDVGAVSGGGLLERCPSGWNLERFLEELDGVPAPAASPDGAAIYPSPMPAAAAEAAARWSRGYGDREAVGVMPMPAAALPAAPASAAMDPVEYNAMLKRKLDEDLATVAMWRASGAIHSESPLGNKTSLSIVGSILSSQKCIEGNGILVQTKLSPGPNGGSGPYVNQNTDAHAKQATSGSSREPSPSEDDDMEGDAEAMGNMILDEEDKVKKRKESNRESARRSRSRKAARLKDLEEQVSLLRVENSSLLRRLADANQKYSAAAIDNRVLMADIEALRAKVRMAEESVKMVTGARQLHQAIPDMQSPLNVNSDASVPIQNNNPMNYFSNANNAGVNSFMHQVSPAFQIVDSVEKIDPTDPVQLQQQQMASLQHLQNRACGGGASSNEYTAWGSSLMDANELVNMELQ
Test: protein-binding microarray (RPBM); PBS, 2% BSA, 51.3 ng/ul salmon testes DNA, 50 uM zinc acetate, 200 nM TF, 25 C, 1 h; high values mean tight binding
Conditions: protein: recombinant; tags: N-terminal polyhistidine and DsRed monomer fusion (pET32a); chain copies: 2; label: CyDye5-dUTP incorporated in the synthesized complementary strand; 3' TTTTT single-stranded linker to array surface; dsDNA, one strand shown
Summary of the method: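 Polyhistidine-tagged DsRed fusions of transcription factors, joined at the N-terminus, were expressed in E. coli BL21-CodonPlus and isolated on Ni–NTA. They were incubated at 200 nM for 1 h at 25 °C on a custom Agilent array, double-stranded and BSA-blocked, in PBS with 2% BSA, salmon testes DNA and 50 µM zinc acetate. The binding signal is per-feature fluorescence intensity (arbitrary units) read on an Axon 4000B scanner after washing.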

| Sequence | binding signal |
| --- | --- |
| GAGGGTTTTAATTACTCACTGACATGTAGGGTCACGGGGTCGGAGTCACCTAGTGCAG | 4390 fluorescence intensity (a.u.) |
| AAAGTACCAACGCTCTGGCCCACACGTCACTGGTCGGTTGCGGAGTCACCTAGTGCAG | 11900 fluorescence intensity (a.u.) |
| TTCTCCTAACATCGGTAATTCACTGTGCCAGTGTTATCGCCGGAGTCACCTAGTGCAG | 20900 fluorescence intensity (a.u.) |
| CTTAGACTTTATCCGCCAGCTCATCAGACCCATAAGCCCACGGAGTCACCTAGTGCAG | 11700 fluorescence intensity (a.u.) |
| AGGCCGGGGAAGGAGTTCGTGCTCCATTTGTGCGTCACCCCGGAGTCACCTAGTGCAG | 4690 fluorescence intensity (a.u.) |
| TTGAAGTTACACTCACTGTACAACGGAGGCCCTTCCCCTTCGGAGTCACCTAGTGCAG | 3140 fluorescence intensity (a.u.) |
| TTTGTACTGCCAACTGTGCATAGTATGACAGCTACTCTTGCGGAGTCACCTAGTGCAG | 5800 fluorescence intensity (a.u.) |
| CAAATTGTCACATAAGCGCCACGTCATTGCCACAGGGCAGCGGAGTCACCTAGTGCAG | 35400 fluorescence intensity (a.u.) |
| CTACCCTATGAAGAAGGGTTTTGCTTCTTGCCTTTTCATGCGGAGTCACCTAGTGCAG | 16400 fluorescence intensity (a.u.) |
| TCACATTGTACAATCACCTAGAAATTTGCTCACTTCCATGCGGAGTCACCTAGTGCAG | 3360 fluorescence intensity (a.u.) |
| CAGTATCCTAATATTGTAGTAGACACCTCAGTGGAGCCTGCGGAGTCACCTAGTGCAG | 3300 fluorescence intensity (a.u.) |
| GACGCGGCGTCGGCGCCCACCGCGGACGGCGCGGCGGCAGCGGAGTCACCTAGTGCAG | 31100 fluorescence intensity (a.u.) |
| GTGGCTTACTGGCAATTGTGCACATCATCAACAGTGTGGACGGAGTCACCTAGTGCAG | 4140 fluorescence intensity (a.u.) |
| ACACTCCAGCATAGTTAATGTTTACTGCTAGGAGGATTCACGGAGTCACCTAGTGCAG | 25600 fluorescence intensity (a.u.) |
| CCATAATGGTCAAACGTGACTCCTCCTCATCTTCTTCCTCCGGAGTCACCTAGTGCAG | 5970 fluorescence intensity (a.u.) |
| AGTAAAAGGAGCCACGTAGGCGCCACGTCATCCAAAACCACGGAGTCACCTAGTGCAG | 47600 fluorescence intensity (a.u.) |
| CAACATCCCTGGCGTCGCCGCGTGTACGCAGCCGCCATCACGGAGTCACCTAGTGCAG | 3930 fluorescence intensity (a.u.) |
| TGTGCCCAGTGACCATATGCTGATGCAGGCTATAAACTTTCGGAGTCACCTAGTGCAG | 4290 fluorescence intensity (a.u.) |
| CAGAGGCGGCGACGACGCGGCGGGCGATGACGCAGAAGGCCGGAGTCACCTAGTGCAG | 3480 fluorescence intensity (a.u.) |
| GGGTCGGGCCATGTATGCGCTGTAGTCAACGGCCCGTACGCGGAGTCACCTAGTGCAG | 3140 fluorescence intensity (a.u.) |
| TCAGCTGCGTCACCCGAGTCCTCCACTCGTCTCCGCTATTCGGAGTCACCTAGTGCAG | 5650 fluorescence intensity (a.u.) |

Some of the entries above, set out differently.
Sequence	binding signal
TTTGTACTGCCAACTGTGCATAGTATGACAGCTACTCTTGCGGAGTCACCTAGTGCAG	5800 fluorescence intensity (a.u.)
CAAATTGTCACATAAGCGCCACGTCATTGCCACAGGGCAGCGGAGTCACCTAGTGCAG	35400 fluorescence intensity (a.u.)
CTACCCTATGAAGAAGGGTTTTGCTTCTTGCCTTTTCATGCGGAGTCACCTAGTGCAG	16400 fluorescence intensity (a.u.)
TCACATTGTACAATCACCTAGAAATTTGCTCACTTCCATGCGGAGTCACCTAGTGCAG	3360 fluorescence intensity (a.u.)

More entries follow.

| Sequence | binding signal |
| --- | --- |
| GCAACACACGTACACATCACATCTCTCGATTGGCTTCCTTCGGAGTCACCTAGTGCAG | 5790 fluorescence intensity (a.u.) |
| GCGAGACCTGGCGTTCGACGCTGACGACGTGCTGGACGAGCGGAGTCACCTAGTGCAG | 4610 fluorescence intensity (a.u.) |
| CTAAAGCATATGAACACTCTTGATTACGTCAACTCCTACTCGGAGTCACCTAGTGCAG | 3180 fluorescence intensity (a.u.) |
| AACCAGGACTAGCGTAGCGTGCGCTGACCCACTGTCACCGCGGAGTCACCTAGTGCAG | 3970 fluorescence intensity (a.u.) |
| TCCCTGGACCCAACGAGACGGCCACGCATGCAATTGCAGCCGGAGTCACCTAGTGCAG | 7640 fluorescence intensity (a.u.) |
| CTAGTAGAGTATGAGTTGGTTAACGTGACCGAGTAATTGTCGGAGTCACCTAGTGCAG | 3270 fluorescence intensity (a.u.) |
| TATAATTTATCTAATTAAGGTCTTTGAAAACATGCTGTGACGGAGTCACCTAGTGCAG | 6950 fluorescence intensity (a.u.) |
| CTCCCCGCCGGAACCACCTCATCACTGCCGCATCCCCTCCCGGAGTCACCTAGTGCAG | 4340 fluorescence intensity (a.u.) |
| CGGCAGCTGCGAAGCCGCCATGCGCAACAAGGCGGACTACCGGAGTCACCTAGTGCAG | 20000 fluorescence intensity (a.u.) |
| AGAGGAGGGAGGAGGAGGGATGGGGATGGAAGAAGGTGTTCGGAGTCACCTAGTGCAG | 3820 fluorescence intensity (a.u.) |
| TGCGTGGTGGTGTTGGTTGATGCAAAATGTGGCAGGGCCACGGAGTCACCTAGTGCAG | 3170 fluorescence intensity (a.u.) |
| GTGGTTCCCAACGTCGTCGGCTCGTTCTCCTCCACCTCACCGGAGTCACCTAGTGCAG | 3240 fluorescence intensity (a.u.) |
| CTTGCCCTCGCTTGCACGTCACCCGTAAAACGCACCGCACCGGAGTCACCTAGTGCAG | 8580 fluorescence intensity (a.u.) |
| GTCGCGAAGTTCTCCTCGATCTTCTCCTCTGGAACCGCCTCGGAGTCACCTAGTGCAG | 3210 fluorescence intensity (a.u.) |
| GTTACACAATTCTACACTGGTCATACAAGGCAGCACTATCCGGAGTCACCTAGTGCAG | 32100 fluorescence intensity (a.u.) |
| GTTCGTGCCGCGCACTCATGCCATGCATGCCGTTTGCCGTCGGAGTCACCTAGTGCAG | 3210 fluorescence intensity (a.u.) |
| CGTAAGACATAGAAGTTCCACACGTAAGTCAGGGCATCAACGGAGTCACCTAGTGCAG | 3580 fluorescence intensity (a.u.) |
| CACGGTAGAAGAGGAGTAGTAGTTGTCACGTTGGCACGCACGGAGTCACCTAGTGCAG | 4590 fluorescence intensity (a.u.) |
| CTAAATCCGAATACGTCAAATTGATACCCGCTTTTACAGCCGGAGTCACCTAGTGCAG | 4060 fluorescence intensity (a.u.) |
| GACCGTGCCCAAGCCACGCATGTGTAGGAGTGGGATGACGCGGAGTCACCTAGTGCAG | 4420 fluorescence intensity (a.u.) |
| TGCCTGCCGGCGGGGTCAGATTATTGACGTTAATGGACGCCGGAGTCACCTAGTGCAG | 3680 fluorescence intensity (a.u.) |
